Test results taken from publication PMC8175508.
Read-outs that look alike come from different tables or passages of the source. These are yes or no findings as the source states them, for the method shown. Binding seen in cells or lysates may run through a third protein. These calls come from enrichment with a bait or labelling near it, and not all partners need be listed. Values belong to the molecule of their own block, whether it stands above or below them.

Protein sequences, listed by entry. Tags and fused reporters are not part of them. Lines headed by an entry give the natural chain unless they say otherwise; changes in a name come on top.
UniProt I7LVL5: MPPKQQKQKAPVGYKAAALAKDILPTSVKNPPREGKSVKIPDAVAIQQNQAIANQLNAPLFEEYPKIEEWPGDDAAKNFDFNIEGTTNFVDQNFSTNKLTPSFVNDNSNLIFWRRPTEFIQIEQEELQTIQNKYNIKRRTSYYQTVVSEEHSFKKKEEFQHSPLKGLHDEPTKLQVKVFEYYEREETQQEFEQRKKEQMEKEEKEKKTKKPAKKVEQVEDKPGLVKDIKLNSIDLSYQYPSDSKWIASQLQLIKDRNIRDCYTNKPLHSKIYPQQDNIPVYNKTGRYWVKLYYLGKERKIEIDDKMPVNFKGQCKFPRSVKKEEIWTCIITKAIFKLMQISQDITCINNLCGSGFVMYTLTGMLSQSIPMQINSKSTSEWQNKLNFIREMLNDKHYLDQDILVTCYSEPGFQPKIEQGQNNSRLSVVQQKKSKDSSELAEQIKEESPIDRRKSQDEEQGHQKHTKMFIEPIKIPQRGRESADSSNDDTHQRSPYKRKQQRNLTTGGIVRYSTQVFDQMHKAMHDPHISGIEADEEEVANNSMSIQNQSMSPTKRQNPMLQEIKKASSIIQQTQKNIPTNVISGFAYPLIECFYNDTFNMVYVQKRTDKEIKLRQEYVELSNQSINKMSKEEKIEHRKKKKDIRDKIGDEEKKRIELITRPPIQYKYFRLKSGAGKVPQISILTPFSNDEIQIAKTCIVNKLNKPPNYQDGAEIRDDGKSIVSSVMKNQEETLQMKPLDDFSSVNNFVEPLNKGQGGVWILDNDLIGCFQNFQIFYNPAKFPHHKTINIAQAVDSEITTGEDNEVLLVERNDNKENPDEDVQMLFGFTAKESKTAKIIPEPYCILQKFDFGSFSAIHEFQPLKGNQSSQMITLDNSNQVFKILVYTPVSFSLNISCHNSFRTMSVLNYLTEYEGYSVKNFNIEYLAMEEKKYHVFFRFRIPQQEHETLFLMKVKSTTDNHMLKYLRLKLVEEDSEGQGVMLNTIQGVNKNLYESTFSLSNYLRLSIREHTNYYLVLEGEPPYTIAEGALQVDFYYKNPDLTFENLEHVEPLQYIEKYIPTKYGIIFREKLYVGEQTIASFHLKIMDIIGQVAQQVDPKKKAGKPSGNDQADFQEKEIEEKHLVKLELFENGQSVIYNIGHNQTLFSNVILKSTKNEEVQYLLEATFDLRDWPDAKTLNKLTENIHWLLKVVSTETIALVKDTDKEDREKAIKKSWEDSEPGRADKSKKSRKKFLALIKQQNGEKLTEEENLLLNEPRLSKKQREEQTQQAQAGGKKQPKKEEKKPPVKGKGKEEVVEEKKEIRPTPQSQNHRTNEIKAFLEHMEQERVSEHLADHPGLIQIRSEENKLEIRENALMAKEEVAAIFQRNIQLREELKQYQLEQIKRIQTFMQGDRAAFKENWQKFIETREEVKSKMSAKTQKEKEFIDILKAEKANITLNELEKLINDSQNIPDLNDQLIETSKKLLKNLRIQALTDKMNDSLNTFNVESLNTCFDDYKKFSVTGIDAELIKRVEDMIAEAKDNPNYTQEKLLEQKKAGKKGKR
UniProt I7M670: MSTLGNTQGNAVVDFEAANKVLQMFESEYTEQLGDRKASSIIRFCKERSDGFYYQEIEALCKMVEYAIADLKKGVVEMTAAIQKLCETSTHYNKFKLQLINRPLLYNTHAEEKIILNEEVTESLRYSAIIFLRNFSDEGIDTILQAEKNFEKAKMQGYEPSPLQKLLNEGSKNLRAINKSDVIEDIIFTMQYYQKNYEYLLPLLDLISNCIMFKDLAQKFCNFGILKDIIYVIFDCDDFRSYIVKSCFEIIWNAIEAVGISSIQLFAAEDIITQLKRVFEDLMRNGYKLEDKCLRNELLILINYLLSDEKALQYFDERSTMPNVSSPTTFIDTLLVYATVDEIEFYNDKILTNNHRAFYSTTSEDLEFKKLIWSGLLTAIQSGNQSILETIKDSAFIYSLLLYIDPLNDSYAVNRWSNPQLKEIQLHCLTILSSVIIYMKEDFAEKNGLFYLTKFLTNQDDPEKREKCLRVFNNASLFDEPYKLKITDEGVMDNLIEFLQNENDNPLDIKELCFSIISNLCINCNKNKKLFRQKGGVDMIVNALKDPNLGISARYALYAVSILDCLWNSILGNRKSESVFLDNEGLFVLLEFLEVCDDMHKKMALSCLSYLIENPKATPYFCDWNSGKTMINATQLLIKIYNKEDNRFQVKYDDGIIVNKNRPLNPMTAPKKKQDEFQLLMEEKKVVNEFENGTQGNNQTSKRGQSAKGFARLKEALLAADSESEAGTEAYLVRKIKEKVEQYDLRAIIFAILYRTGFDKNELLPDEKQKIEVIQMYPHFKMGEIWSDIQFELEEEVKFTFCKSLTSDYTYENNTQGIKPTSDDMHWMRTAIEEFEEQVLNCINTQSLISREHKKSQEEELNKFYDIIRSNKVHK
UniProt I7LUX8: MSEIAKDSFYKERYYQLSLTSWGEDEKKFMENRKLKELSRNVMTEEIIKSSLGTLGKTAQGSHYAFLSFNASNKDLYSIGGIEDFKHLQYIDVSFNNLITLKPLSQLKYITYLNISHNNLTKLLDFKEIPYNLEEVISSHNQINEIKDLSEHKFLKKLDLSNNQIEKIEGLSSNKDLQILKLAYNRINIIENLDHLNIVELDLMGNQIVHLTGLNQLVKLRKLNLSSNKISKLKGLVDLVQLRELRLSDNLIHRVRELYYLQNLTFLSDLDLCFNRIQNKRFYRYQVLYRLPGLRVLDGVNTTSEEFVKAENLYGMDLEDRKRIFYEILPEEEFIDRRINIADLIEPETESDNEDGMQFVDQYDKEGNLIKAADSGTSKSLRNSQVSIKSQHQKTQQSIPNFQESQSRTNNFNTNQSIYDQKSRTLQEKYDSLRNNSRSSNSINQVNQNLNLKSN
UniProt Q23G22: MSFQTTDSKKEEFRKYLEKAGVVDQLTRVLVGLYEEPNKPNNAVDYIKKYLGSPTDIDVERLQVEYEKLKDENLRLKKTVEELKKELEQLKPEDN

Tests used:
[1] = biological target: Adgb-3HA (Tetrahymena thermophila) (UniProt I7LVL5); assay: affinity purification with mass spectrometry; 3HA-tagged bait under native promoter; cilia extracted with NP-40 and NaCl (final 1% and 0.6 M), supernatant diluted 4x; anti-HA agarose overnight at 4 °C; washes with 150 mM NaCl, 0.25% NP-40; bound proteins identified by mass spectrometry; wild-type cilia as control
[2] = biological target: Spef2A-HA-BirA* (Tetrahymena thermophila) (UniProt Q22AX1); assay: proximity labelling; BioID in Tetrahymena cells expressing C-terminal HA-BirA* fusions under native promoters; starved cells, 50 µM biotin, 4 h at 30 °C; axonemes lysed (0.4% SDS, 0.5 M NaCl); biotinylated ciliary proteins bound to streptavidin Dynabeads and identified by LC-MS/MS; wild-type cilia as negative control
[3] = biological target: Cfap69-HA-BirA* (Tetrahymena thermophila) (UniProt I7M670); assay: as above
[4] = biological target: Cfap246-HA-BirA* (Tetrahymena thermophila) (UniProt I7LUX8); assay: as above
[5] = biological target: Cfap246-HA-BirA* (Tetrahymena thermophila) (UniProt I7LUX8); assay: as above; remark: listed apart in the source
[6] = biological target: Spef2A-HA-BirA* (Tetrahymena thermophila) (UniProt Q22AX1); assay: as above; remark: listed apart in the source
[7] = biological target: Cfap69-HA-BirA* (Tetrahymena thermophila) (UniProt I7M670); assay: as above; remark: listed apart in the source

Molecule: Androglobin/Adgb (from UniProt I7LVL5)
binding [4]: binds | binding [2]: binds | binding [3]: binds

B1: Tt170 (protein, UniProt Q22NC6 1-154)
chain: MNSSLKYGKGSRPEDDYQQYNNTQKGFNNTQSSFGTNPASLKGKLMSLEEMIKNIADEMNFHKKEVQILKSEKDTLQSVLSMKTQDVKKTLTSELMRIEEEMKRHFAHQKAENARLQQQITSLKGEKTALQQQLLGLQRRITELEMQVGNEDNH
binding [5]: binds | binding [6]: binds | binding [7]: binds

More lines, now with the values ahead:

binding [1]: binds | binding [2]: binds | binding [3]: binds
Molecule: Cfap246 (from UniProt I7LUX8)

binding [1]: binds | binding [4]: binds | binding [2]: binds
Molecule: Cfap69 (from UniProt I7M670)

binding [1]: binds | binding [4]: binds | binding [2]: binds | binding [3]: binds
Molecule: Cfap174 (from UniProt Q23G22)
